# Publication PMC7819943, “Rice protein-binding microarrays: a tool to detect cis-acting elements near promoter regions in rice”
# Chains of the proteins cited; added tags and fusions are not shown.
# UniProt Q0JBA9, entry or part of it: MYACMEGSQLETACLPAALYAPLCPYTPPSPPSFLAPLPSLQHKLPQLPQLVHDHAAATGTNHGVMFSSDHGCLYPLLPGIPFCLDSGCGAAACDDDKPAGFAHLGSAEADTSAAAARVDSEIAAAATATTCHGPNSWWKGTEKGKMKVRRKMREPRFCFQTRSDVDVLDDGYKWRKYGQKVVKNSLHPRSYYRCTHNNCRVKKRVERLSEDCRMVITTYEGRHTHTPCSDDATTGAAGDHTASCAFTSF
# The list shows a part of the results.
# Target: OsWRKY34 (Oryza sativa, UniProt Q0JBA9 1-250)
# Experiment: protein-binding microarray (RPBM); PBS, 2% BSA, 51.3 ng/ul salmon testes DNA, 50 uM zinc acetate, 200 nM TF, 25 C, 1 h; high values mean tight binding
# Details: protein: recombinant; tags: N-terminal polyhistidine and DsRed monomer fusion (pET32a); label: CyDye5-dUTP incorporated in the synthesized complementary strand; 3' TTTTT single-stranded linker to array surface; dsDNA, one strand shown
# Summary of the method: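 Binding signal is defined as the fluorescence intensity of each feature in arbitrary units, read on an Axon 4000B scanner. Transcription factors with N-terminal polyhistidine and DsRed fusions came from E. coli BL21-CodonPlus and were purified on Ni–NTA. They were incubated at 200 nM for 1 h at 25 °C on a custom Agilent array that had been made double-stranded with Cy5-dUTP, with 50 µM zinc acetate present, and the array was washed.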
row,Sequence,binding signal
1,ACCCGTTGTAACGCGCGAGCTTATTTTTTTCTCTAGTCTTCGGAGTCACCTAGTGCAG,14300 fluorescence intensity (a.u.)
2,GTCCAGGTTGGTTTTCATGGGTCGAGTGGCATCAGATGGGCGGAGTCACCTAGTGCAG,10100 fluorescence intensity (a.u.)
3,ATTGCCAAATTTCTTGATTCGCTGCCAAGTACTACATCCCCGGAGTCACCTAGTGCAG,8920 fluorescence intensity (a.u.)
4,GAAGAAGGGAGGAGGAGGGGAGGGAGAGGAGTTGGAAGAGCGGAGTCACCTAGTGCAG,9020 fluorescence intensity (a.u.)
5,GTCCTTGTTTGATTTGCTGCCATCAGAAAGAGAGATCTCTCGGAGTCACCTAGTGCAG,9100 fluorescence intensity (a.u.)
6,TTGGGTGTGCTAACTATTGGGTGGTATATTCTGAAAATTCCGGAGTCACCTAGTGCAG,11900 fluorescence intensity (a.u.)
7,TAACCTTTTTAGCTTTTATATAGTTCTATTTTGCTTTTATCGGAGTCACCTAGTGCAG,8830 fluorescence intensity (a.u.)
8,CTTTTTTTTATAGATGATGAGGGCGGGTGAGCAGTATTGTCGGAGTCACCTAGTGCAG,9130 fluorescence intensity (a.u.)
9,ACTGGTGTCCCTGTTTTGCTCTGTAGTATAAAGCCACGCACGGAGTCACCTAGTGCAG,8820 fluorescence intensity (a.u.)
10,CGTCGCCTTTCCTCTCTCTCTCTCTCTCTCTCTCTGCGCACGGAGTCACCTAGTGCAG,8370 fluorescence intensity (a.u.)
11,TCTCTCGATCCCCTAACGCGCTCTCTCTCTTTCTCTCTCGCGGAGTCACCTAGTGCAG,10400 fluorescence intensity (a.u.)
12,CCACCACCACCAGTCCATTACCGCTCGCTCGCTGCTCCCCCGGAGTCACCTAGTGCAG,9490 fluorescence intensity (a.u.)
13,ACAAACACTCGAGCTCACACCTGCTCGATCAAAATCCTCCCGGAGTCACCTAGTGCAG,8780 fluorescence intensity (a.u.)
14,AGTTATAATGTTGCCTACGCTGATCTACTGTTTTTCTTCTCGGAGTCACCTAGTGCAG,8150 fluorescence intensity (a.u.)
15,GGATAAAATCGTAGCTAGTATTATATTTTGTTATATTCATCGGAGTCACCTAGTGCAG,8050 fluorescence intensity (a.u.)
16,AAATAGTCTTCACCCGTTACAACGCATGTGCATTTTTTATCGGAGTCACCTAGTGCAG,10300 fluorescence intensity (a.u.)
17,TGCTTTTCGGTCAGTTGTTTGGCTGCAATAACTGTAAACTCGGAGTCACCTAGTGCAG,10200 fluorescence intensity (a.u.)
18,GTTAAAGCTTCCTTATTTGTCGATTATACGGACGTTCTAACGGAGTCACCTAGTGCAG,8420 fluorescence intensity (a.u.)
19,TTTCTTCCATACTGAAATGTGTATCTTAGCTACTGAAGCTCGGAGTCACCTAGTGCAG,8440 fluorescence intensity (a.u.)
20,TGTATATGTATGCACTAATGTGTTTTTCTTGTAACCTAGTCGGAGTCACCTAGTGCAG,8900 fluorescence intensity (a.u.)
21,GTCATCAACTTCTGCTACGACTTCCTCCGCCGCAACAGCCCGGAGTCACCTAGTGCAG,8990 fluorescence intensity (a.u.)

row,Sequence,binding signal
1,TATTTTGATTTTCTTTACCTTGTTTTTTAAACTGTACATTCGGAGTCACCTAGTGCAG,10900 fluorescence intensity (a.u.)
2,GTGCGTAGTTACATTTGGACTTCTCTGCGTTTTTTTTTTCCGGAGTCACCTAGTGCAG,9530 fluorescence intensity (a.u.)
3,CAGTGTTGCCGCCGTCATCCTCCCAGCGCCCTATTCACCTCGGAGTCACCTAGTGCAG,9200 fluorescence intensity (a.u.)
4,GCCTCTGCCAGCCGACGGCCGTTCGGCCCTCCGCGCACGCCGGAGTCACCTAGTGCAG,8320 fluorescence intensity (a.u.)
5,TGACGTCATCAGATTTCGGCCCAGCCCATCACGCGCGCGTCGGAGTCACCTAGTGCAG,8800 fluorescence intensity (a.u.)
6,ACTTTTTGTATTATGTATGAGCTGCATGTATTTTCAACCGCGGAGTCACCTAGTGCAG,8800 fluorescence intensity (a.u.)
7,GGCGGCACCAAAATACCACCCGCCGCCCGCCCACCGTACCCGGAGTCACCTAGTGCAG,8930 fluorescence intensity (a.u.)
8,ATCAATTTACTTTGCAATTTCACTATTTCGGGTGTTAAGACGGAGTCACCTAGTGCAG,8350 fluorescence intensity (a.u.)
9,TGACTTTTTTAAATATGTTTGACCGTTCGTCTTATTGAAACGGAGTCACCTAGTGCAG,8190 fluorescence intensity (a.u.)
10,GGGTGCTTGTGTGGATGATGTGAAGATACTGGCGAAAGCCCGGAGTCACCTAGTGCAG,9720 fluorescence intensity (a.u.)
11,GGCTTATGTTATGTGTATGTACTTTGGTCGCATCGATCGGCGGAGTCACCTAGTGCAG,9120 fluorescence intensity (a.u.)
12,CTTTATATCTGCAATTCTGCATCGTCTCCTCTGAAAGATTCGGAGTCACCTAGTGCAG,8480 fluorescence intensity (a.u.)
13,TTGTGCTCTGACTTCTTCTTCACTCTGCAGCTCTGCTCGTCGGAGTCACCTAGTGCAG,8240 fluorescence intensity (a.u.)
14,TAGTTTCTATTTCCGTTTGTCGTGCTCCAGATTTATGAATCGGAGTCACCTAGTGCAG,8260 fluorescence intensity (a.u.)
15,TCGTTAAGTGTTGTGCTTGTTCTGAACTCCTTTTTAAGTACGGAGTCACCTAGTGCAG,9600 fluorescence intensity (a.u.)
16,TATTAGTACACTGCATGCGCTTAGTATGTTATTTATTTTCCGGAGTCACCTAGTGCAG,10300 fluorescence intensity (a.u.)
17,ATGCTCTTTCTTCAGACATCTCCACCCTTCCTATCTTGATCGGAGTCACCTAGTGCAG,12600 fluorescence intensity (a.u.)
18,TATATATATATATATATATATATATATATATATAGTAAATCGGAGTCACCTAGTGCAG,8280 fluorescence intensity (a.u.)
19,CTTTTTCTCCACTGACATGTGAGGCCAACTTATTCCACGACGGAGTCACCTAGTGCAG,8820 fluorescence intensity (a.u.)
20,GAATTATACATGGACATATCTGCCTTGAATTTGATTGCAACGGAGTCACCTAGTGCAG,8830 fluorescence intensity (a.u.)
21,GATCCACGTTTTTCAACATGAATTCCCTGAGCTGTATGCTCGGAGTCACCTAGTGCAG,9750 fluorescence intensity (a.u.)

# Eight entries from above, with tabs:
row	Sequence	binding signal
5	TGACGTCATCAGATTTCGGCCCAGCCCATCACGCGCGCGTCGGAGTCACCTAGTGCAG	8800 fluorescence intensity (a.u.)
6	ACTTTTTGTATTATGTATGAGCTGCATGTATTTTCAACCGCGGAGTCACCTAGTGCAG	8800 fluorescence intensity (a.u.)
7	GGCGGCACCAAAATACCACCCGCCGCCCGCCCACCGTACCCGGAGTCACCTAGTGCAG	8930 fluorescence intensity (a.u.)
8	ATCAATTTACTTTGCAATTTCACTATTTCGGGTGTTAAGACGGAGTCACCTAGTGCAG	8350 fluorescence intensity (a.u.)
9	TGACTTTTTTAAATATGTTTGACCGTTCGTCTTATTGAAACGGAGTCACCTAGTGCAG	8190 fluorescence intensity (a.u.)
10	GGGTGCTTGTGTGGATGATGTGAAGATACTGGCGAAAGCCCGGAGTCACCTAGTGCAG	9720 fluorescence intensity (a.u.)
11	GGCTTATGTTATGTGTATGTACTTTGGTCGCATCGATCGGCGGAGTCACCTAGTGCAG	9120 fluorescence intensity (a.u.)
12	CTTTATATCTGCAATTCTGCATCGTCTCCTCTGAAAGATTCGGAGTCACCTAGTGCAG	8480 fluorescence intensity (a.u.)
